Source: PubChem BioAssay AID540275 (National Center for Advancing Translational Sciences (NCATS), 2011)
Screen size: about 320,000 compounds; about 620 (0.19%) were called active. This list was built around the results that the source calls inconclusive (neither active nor inactive); the mix of calls is not that of the screen. Rule as the data show it: active = activation above about 80%; inconclusive = between about 30% and that limit; inactive = weaker than that.

Sequences of proteins named here, by UniProt entry; tags and fusion partners are left off.
UniProt Q8NER1, whole entry, looked up: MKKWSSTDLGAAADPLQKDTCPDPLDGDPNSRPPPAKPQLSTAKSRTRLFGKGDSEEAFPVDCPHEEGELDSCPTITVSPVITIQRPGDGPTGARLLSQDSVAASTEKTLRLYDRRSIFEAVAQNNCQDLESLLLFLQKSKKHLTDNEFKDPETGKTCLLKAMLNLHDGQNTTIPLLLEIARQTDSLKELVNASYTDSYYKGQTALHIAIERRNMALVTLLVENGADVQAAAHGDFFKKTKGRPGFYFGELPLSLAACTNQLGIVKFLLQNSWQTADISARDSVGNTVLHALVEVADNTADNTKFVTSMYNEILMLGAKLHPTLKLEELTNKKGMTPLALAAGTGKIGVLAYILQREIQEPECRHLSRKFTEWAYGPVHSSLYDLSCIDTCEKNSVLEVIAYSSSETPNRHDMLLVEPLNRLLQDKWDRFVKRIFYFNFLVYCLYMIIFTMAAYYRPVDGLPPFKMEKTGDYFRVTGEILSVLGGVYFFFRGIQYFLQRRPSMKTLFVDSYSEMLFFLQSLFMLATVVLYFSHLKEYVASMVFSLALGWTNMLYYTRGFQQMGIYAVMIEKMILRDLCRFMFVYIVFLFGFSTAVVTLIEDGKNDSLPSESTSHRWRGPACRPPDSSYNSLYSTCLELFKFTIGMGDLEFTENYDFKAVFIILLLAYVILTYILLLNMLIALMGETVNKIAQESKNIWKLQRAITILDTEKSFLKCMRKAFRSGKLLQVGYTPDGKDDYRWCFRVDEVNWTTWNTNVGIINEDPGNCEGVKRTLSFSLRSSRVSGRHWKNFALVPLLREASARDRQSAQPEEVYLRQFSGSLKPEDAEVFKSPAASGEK

Target: Transient receptor potential cation channel subfamily V member 1 (Homo sapiens) (UniProt Q8NER1)
Experiment: HTS Assay for Compounds that Act as Agonists of the Vanilloid Receptor 1; also: 0% is about no effect
Settings: TRPV1-expressing cells, Fluo-8 calcium influx, agonist mode; at 8.33 µM, stronger effect = higher value
How it was run: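 Cells expressing TRPV1 were dye-loaded with Fluo-8 and read kinetically: 10 s baseline, 3 min after compound (agonist portion), then 2 min after EC20 capsaicin (allosteric enhancer portion). Calcium-bound dye fluorescence at 480/520 nm.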

| Structure (SMILES) | activation |
| --- | --- |
| CCCCC(=O)Nc1nn(CC)c2nc3c(C)cccc3cc12 | inconclusive: 54.9% |
| Cc1nc(Nc2ccccc2)[nH]c(=O)c1CCC(C)C | inconclusive: 42.3% |
| Cc1ccccc1/C=N/Nc1nc2ccccc2[nH]1 | inconclusive: 37.3% |
| CCNc1nc(NCC)nc(NS(=O)(=O)c2ccc(N)cc2)n1 | inactive: -2.78% |
| CC(C)(C)CC(=O)NCCc1csc(-c2ccccc2)n1 | inconclusive: 31.3% |
| O=C(c1ccc(Cl)cc1)C1CCN(C(=O)N2CCOCC2)CC1 | inconclusive: 38.8% |
| CC(=O)c1cccc(NC(=O)c2ccc(N(C)S(=O)(=O)c3ccc(C)cc3)cc2)c1 | inconclusive: 60.9% |
| CCOC(=O)c1nn(-c2ccccc2)c(=O)cc1SC(C)CC (centres undefined) | inconclusive: 36.5% |
| CC1CC(=S)Nc2ccccc2N1C(=O)Nc1ccccc1 (centres undefined) | inconclusive: 38.1% |
| CCOc1ccc(CNC(=O)C2CCCN(c3nnc(C)c4c(C)n(-c5ccccc5)nc34)C2)cc1 (centres undefined) | inconclusive: 45.3% |
| C/C(CC(=O)Nc1cc(C)ccn1)=N\NC(=O)c1ccc(C(C)(C)C)cc1 | inactive: 1.27% |
| Cc1cc(Cn2nc(-c3ccccc3)cc2C(=O)NCC2CC2)on1 | inconclusive: 51.9% |
| CC(C)C[C@H](NC(=O)c1[nH]cnc1C(=O)Nc1ccc(Cl)cc1)C(=O)OC(C)(C)C | inconclusive: 65.4% |
| CCC(=O)O[C@]1(C(=O)CCl)[C@@H](C)C[C@H]2[C@@H]3CCC4=CC(=O)C=C[C@]4(C)[C@@]3(F)[C@@H](O)C[C@@]21C | inactive: 8.49% |
| O=C(N1CCOCC1)N1CCN(c2ccccc2F)CC1 | active: 83.5% |
| Cc1nn(C(C)(C)C)c(OC(=O)CC(C)C)c1S(=O)(=O)c1ccccc1 | inconclusive: 34.3% |
| CCOC(=O)c1sc2nc(C)nc(SCC(=O)NC3CCS(=O)(=O)C3)c2c1C (centres undefined) | inactive: 1.35% |
| CCC(=O)Nc1ccc(C(=O)COC(=O)c2sc(C)nc2C)cc1 | inactive: -2.81% |
| Cc1nn(C)c(C)c1/C=C/C(=O)c1ccc(Cl)cc1Cl | inactive: 14.3% |
| COc1ccccc1N1C(=O)C2C(c3ccc(F)cc3)NN(C(=O)c3ccc(C)cc3)C2C1=O (centres undefined) | inconclusive: 45.9% |
| CCOc1ncccc1C(=O)N1CCN(C(c2ccccc2)c2ccccc2)CC1 | inconclusive: 34.3% |
| Cc1ccc(S(=O)(=O)N/N=C/c2ccc(O)cc2O)cc1[N+](=O)[O-] | inactive: -2.45% |
| COc1ccc(Br)cc1CN1CCCCCC1 | inactive: 0.656% |

A different layout for part of the listing above:
Structure (SMILES)	activation
CCOC(=O)c1sc2nc(C)nc(SCC(=O)NC3CCS(=O)(=O)C3)c2c1C (centres undefined)	inactive: 1.35%
CCC(=O)Nc1ccc(C(=O)COC(=O)c2sc(C)nc2C)cc1	inactive: -2.81%
Cc1nn(C)c(C)c1/C=C/C(=O)c1ccc(Cl)cc1Cl	inactive: 14.3%
COc1ccccc1N1C(=O)C2C(c3ccc(F)cc3)NN(C(=O)c3ccc(C)cc3)C2C1=O (centres undefined)	inconclusive: 45.9%

Fetched by compound from above (two):

| Structure (SMILES) | activation |
| --- | --- |
| O=C(c1ccc(Cl)cc1)C1CCN(C(=O)N2CCOCC2)CC1 | inconclusive: 38.8% |
| CC1CC(=S)Nc2ccccc2N1C(=O)Nc1ccccc1 (centres undefined) | inconclusive: 38.1% |

Continuation.

| Structure (SMILES) | activation |
| --- | --- |
| Cc1ccccc1OCCC(=O)N1CCN(S(=O)(=O)c2ccc(F)cc2)CC1 | inconclusive: 40.2% |
| COc1ccc(C)cc1N(C(=O)c1ccc(C#N)cc1)C1=NC(C)(C)CS1 | inconclusive: 30.2% |
| COc1ccc(CNC(=S)NC2CCCC2)cc1 | inconclusive: 31.6% |
| O=C(CN(Cc1ccccc1)S(=O)(=O)c1ccc(F)cc1)NCCC1=CCCCC1 | inconclusive: 32.6% |
| O=C(Nc1ccc(F)cc1)c1ccc2c(=O)n3c(nc2c1)CCCCC3 | inconclusive: 64.1% |
| Cc1ccc(/C=C/C(=O)c2ccc(O)cc2)cc1 | inconclusive: 78.8% |
| COc1cc(CC(NC(C)=O)C(=O)NC2CCN(C(=O)Nc3ccc(C)cc3)CC2)cc(OC)c1 (centres undefined) | inactive: 0.612% |
| Cc1cc(C)nc(NC(=O)/C=C/c2ccc3c(c2)OCO3)c1 | inconclusive: 35.9% |
| Cc1ccc(C(=O)Nc2nc(-c3ccccn3)cs2)cc1S(=O)(=O)N1CCOCC1 | inconclusive: 39.9% |
| OC(CNc1nc(-c2cccnc2)nc2ccccc12)c1ccccc1 (centres undefined) | inconclusive: 63% |
| O=C(NC(=S)Nc1cccc2cc(O)ccc12)c1ccco1 | inactive: 16% |
| O=C1C2C3C=CC(C3)C2C(=O)N1CCCCCCN1C(=O)C2C3C=CC(C3)C2C1=O (centres undefined) | inactive: 18.7% |
| CC(=O)c1ccc(NC(=O)/C(Cl)=C/c2ccccc2)cc1 | inconclusive: 36.2% |
| CCN(CC)S(=O)(=O)c1cccc(NC(=O)c2cc3ccccc3o2)c1 | inconclusive: 56.4% |
| Cc1ccc2[nH]c(O)c(N=NC(N)=S)c2c1 | inactive: -0.164% |
| Cn1cc(C(=O)N/N=C/c2cccs2)c2ccccc21 | inactive: 0.0161% |
| COc1ccc(NC(=O)CC2C(=O)N(c3ccc(F)cc3)C(=S)N2NC(=O)c2ccccc2)cc1 (centres undefined) | inactive: 5.2% |
| CC1CCCCN1S(=O)(=O)c1ccc(NC(=O)c2ccco2)cc1 (centres undefined) | inconclusive: 41.7% |
| Cc1ccc(C)c(Nc2nc(-c3ccncc3)nc3ccccc23)c1 | inconclusive: 38.4% |
| CNC(=O)CCc1nc(-c2ccc(C(C)(C)C)cc2)no1 | inconclusive: 49.8% |
| CC1CCCC(NC(=O)COC(=O)Cc2c[nH]c3ccccc23)C1C (centres undefined) | inactive: 9.81% |
| CCn1nnnc1NCc1ccc(OCc2c(F)cccc2Cl)c(OC)c1 | inconclusive: 31.1% |
| Cc1cc(C)n(-c2nc3ccccc3c(=O)n2OCCOc2ccccc2)n1 | inactive: -2.06% |

| Structure (SMILES) | activation |
| --- | --- |
| Cc1nnsc1C(=O)NC1CCCc2c1cnn2-c1cc(F)cc(F)c1 (centres undefined) | inconclusive: 70.3% |
| O=C(Nc1nc(-c2ccc(F)c(F)c2)cs1)Nc1ccc(F)cc1F | inconclusive: 54.9% |
| COc1ccccc1N/C(N)=N/c1nc(C(F)(F)F)cc(=O)[nH]1 | inconclusive: 46.4% |
| O=C(Cc1cccs1)Nc1nc2c(ccc3ccccc32)s1 | active: 80.6% |
| O=C(CNCCC1=CCCCC1)Nc1ccc(N2CCCCCC2)cc1 | inconclusive: 57.9% |
| CCC(C)Sc1nc2c(c(=O)[nH]c(=O)n2C)n1Cc1ccccc1Cl (centres undefined) | inconclusive: 67.7% |
| Cc1cccc(N2CCN(CC(O)COc3ccc(Cl)cc3)CC2)c1 (centres undefined) | inactive: 7.31% |
| Cc1cccc(NC(=S)N/N=C/c2c[nH]c3ccccc23)c1 | inactive: -6.34% |
| Cc1ccc(SCC(=O)OCC(=O)NCCC2=CCCCC2)cc1 | inconclusive: 34.1% |
| NS(=O)(=O)c1cccc(NC(=O)CC23CC4CC(CC(Br)(C4)C2)C3)c1 | inconclusive: 54.8% |
| CC(C)c1nc2oc3c(N(C)CCO)ncnc3c2c2c1CCC2 | inconclusive: 34.6% |
| COc1ccc(OC)c(-c2cc(-c3cccnc3)nc(N)c2C#N)c1 | inconclusive: 67.2% |
| CC(C)(C)NC(=O)Nc1ccc(Br)cc1 | inconclusive: 46.7% |
| CCc1ccc(-c2cc(C)no2)cc1S(=O)(=O)N1CCN(c2ccccn2)CC1 | inconclusive: 59.7% |
| COc1cccc(/C=N/NC(=O)CCc2n[nH]c(=O)[nH]c2=O)c1O | inactive: -1.03% |
| COc1ccc(C(=O)NNC(=O)CSc2nnc(-c3cccnc3)o2)cc1 | inconclusive: 34.1% |
| O=C1CCC/C(=N/NC(=O)c2sc3ccccc3c2Cl)C1 | inactive: 23.1% |
| COc1cccc(OCc2cc(/C=N/Nc3ccc(C(=O)O)cc3)ccc2OC)c1 | inactive: -2.28% |
| COc1ccc(S(=O)Cc2ccc(C(=O)NCc3cccc(OC)c3)o2)cc1 (centres undefined) | inactive: -0.327% |
| CCOC(=O)c1cc2n(c1/N=C/N(C)C)-c1ccccc1C2=O | inconclusive: 61.9% |
| COc1ccccc1C1CC(c2ccccc2)=NN1C(=O)c1ccccc1 (centres undefined) | inconclusive: 38.1% |
| CCOC(=O)c1ccccc1NC(=O)COC(=O)C1CC(=O)N(CCc2ccccc2)C1 (centres undefined) | inconclusive: 30.9% |
| Cc1ccc(CNC(=O)CCOc2ccc(C(C)(C)C)cc2)cc1 | inconclusive: 34.1% |

| Structure (SMILES) | activation |
| --- | --- |
| COc1ccc(C2C(=O)N(C3CCCCCC3)CC(=O)N2Cc2ccccc2)cc1OC (centres undefined) | inconclusive: 37.8% |
| CCN(CC)c1ccc(/C=C(/C#N)C(=O)NCc2ccccc2)o1 | inconclusive: 46.9% |
| CC(OC(=O)CN1C(=O)NC2(CCCC2)C1=O)C(=O)c1ccc(C(C)(C)C)cc1 (centres undefined) | inconclusive: 69.7% |
| CCOc1ccc(C(=O)NCc2ccccc2)cc1Br | inconclusive: 36% |
| CC(C)(C)[C@@H]1CCC(=O)N(CC[C@H](N=[N+]=[N-])c2ccccc2)CC1 | inconclusive: 48.6% |
| C#Cc1ccc([C@@H]2C=C(C(=O)OCC=C)O[C@H](OCc3ccc(CO)cc3)C2)cc1 | inconclusive: 41.7% |
| COc1ccc(CNC(=O)C2CCN(S(=O)(=O)N3CC(C)CC(C)C3)CC2)cc1 (centres undefined) | inconclusive: 40.9% |
| CC(Sc1ccc2c(c1)OCCO2)C(=O)Nc1ccc2c(c1)OCO2 (centres undefined) | inconclusive: 32.5% |
| CCCc1nnc2n1N=C(c1ccc(C)cc1)CS2 | inconclusive: 39.6% |
| COc1cccc(N2CC(NC(=O)C(=O)c3c[nH]c4ccccc34)CC2=O)c1 (centres undefined) | inactive: 2.54% |
| O=C(CSc1nc2ccccc2s1)N1CCOCC1 | inconclusive: 52.8% |
| CCOC(=O)C1(Cc2cccc(Cl)c2)CCCN(C(=O)C(C)(C)C)C1 (centres undefined) | inconclusive: 37.5% |
| O=C(/C=C/c1ccc(OCCCF)cc1)N1CCOCC1 | inconclusive: 76.8% |
| CCN=C1S/C(=C\c2cn(CC(=O)NCc3ccco3)c3ccccc23)C(=O)N1CC | inconclusive: 37.3% |
| CN(Cc1ccncn1)C(=O)CC1C(=O)NCCN1Cc1cccc(Oc2ccccc2)c1 (centres undefined) | inactive: 1.9% |
| CCSc1ccc(-c2cccc([N+](=O)[O-])c2)nn1 | inactive: 26.8% |
| O=C(N/N=C/c1cccc(O)c1)c1ccc(COc2ccccc2Br)cc1 | inconclusive: 48.8% |
| O=c1[nH]c2ccc(Cl)cc2c(-c2ccccc2)c1SC(=S)N1CCOCC1 | inactive: -2.42% |
| COc1ccc(CC(=O)Nc2ccc(S(=O)(=O)N(C)C)cc2)cc1OC | inconclusive: 38% |
| Cc1ccc(NC(=O)C2CCCN(c3ncnc4c3nc3n4CCCCC3)C2)nc1 (centres undefined) | inconclusive: 42.6% |
